For two substances, binding results are on record in publication PMC11375261.

Sequences of proteins named here, by UniProt entry; tags and fusion partners are left off. A change or cut given only in a name is not applied to a line headed by its entry.
UniProt Q92581: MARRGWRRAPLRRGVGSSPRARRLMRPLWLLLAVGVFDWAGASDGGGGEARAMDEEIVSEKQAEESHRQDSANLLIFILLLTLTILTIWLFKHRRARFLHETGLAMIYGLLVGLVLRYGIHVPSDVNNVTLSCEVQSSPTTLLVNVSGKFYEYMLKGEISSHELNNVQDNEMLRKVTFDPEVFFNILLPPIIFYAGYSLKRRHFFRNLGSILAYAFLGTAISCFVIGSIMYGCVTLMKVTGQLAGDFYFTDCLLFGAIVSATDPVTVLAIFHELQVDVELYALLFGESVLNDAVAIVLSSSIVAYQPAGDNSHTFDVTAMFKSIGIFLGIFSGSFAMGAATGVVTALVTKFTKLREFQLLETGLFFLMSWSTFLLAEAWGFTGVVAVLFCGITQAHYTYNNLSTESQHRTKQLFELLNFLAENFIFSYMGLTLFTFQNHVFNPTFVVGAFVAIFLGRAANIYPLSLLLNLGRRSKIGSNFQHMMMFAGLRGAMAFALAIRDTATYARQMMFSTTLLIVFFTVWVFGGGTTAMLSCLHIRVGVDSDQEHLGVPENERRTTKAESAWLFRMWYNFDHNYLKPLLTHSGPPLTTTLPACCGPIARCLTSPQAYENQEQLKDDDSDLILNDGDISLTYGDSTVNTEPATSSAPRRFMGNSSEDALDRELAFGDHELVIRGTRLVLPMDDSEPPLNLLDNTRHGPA

This test deals with T1, c-Myc-GGA1 (mouse GGA1 in pCMV-c-Myc) (mouse) (UniProt Q8R0H9).
T1 sequence: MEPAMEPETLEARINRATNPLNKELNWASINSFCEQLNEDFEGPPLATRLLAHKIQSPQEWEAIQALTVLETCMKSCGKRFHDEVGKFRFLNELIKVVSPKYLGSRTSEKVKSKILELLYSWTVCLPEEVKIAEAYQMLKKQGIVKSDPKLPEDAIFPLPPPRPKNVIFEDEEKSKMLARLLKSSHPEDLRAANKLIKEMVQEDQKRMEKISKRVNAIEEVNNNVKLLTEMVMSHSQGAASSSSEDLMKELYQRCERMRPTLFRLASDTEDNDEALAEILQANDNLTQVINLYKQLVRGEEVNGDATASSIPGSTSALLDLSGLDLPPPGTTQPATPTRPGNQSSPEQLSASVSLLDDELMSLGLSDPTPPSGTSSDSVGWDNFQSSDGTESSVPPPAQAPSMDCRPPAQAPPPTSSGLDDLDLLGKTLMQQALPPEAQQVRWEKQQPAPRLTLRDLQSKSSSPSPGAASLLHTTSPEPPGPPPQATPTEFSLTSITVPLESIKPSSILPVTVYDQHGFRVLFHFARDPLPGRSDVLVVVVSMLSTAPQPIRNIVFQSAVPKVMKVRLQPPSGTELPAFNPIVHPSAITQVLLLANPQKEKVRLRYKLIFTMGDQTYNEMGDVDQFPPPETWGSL
As to the kind of experiment: co-IP; HEK293T cells cotransfected with c-Myc-GGA1 and an HA-tagged NHE construct; lysate precipitated with anti-c-Myc, blotted with anti-NHE6 or anti-HA.

Results are given in words; binding and its absence hold for the method and conditions named. In cells and extracts the contact can be indirect. Binding calls can cover weak binding; strength is not graded here. Tags and fused reporters may be left off the sequences shown.

With “HA-tagged full-length human NHE6.2 (NHE6-HA) (from UniProt Q92581-1)”, the binding result was “binds”.
The entry for “HA-tagged cytoplasmic domain of human NHE6.2 (NHE6-CD) (from UniProt Q92581) (domain or fragment)” is “binds”.
